PubChem BioAssay AID504764 | Drosophila RNAi Screening Center – 2011
In all, the deposit lists about 22,000 reagents; this is a random part of those that have a named target and a result. Over the whole deposit, 403 (1.9%) got an active call. 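Unnormalised raw counts per well; ratio z-scores behind the hit calls and whether each hit raises or lowers signal are not deposited.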 A plus sign joins genes that one reagent is predicted to hit. Reagent sequences are not shown. The record does not give: the amount of reagent.

- Aim: 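Genes whose knock-down alters Notch-dependent transcription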 (primary screen)
- System: Drosophila Kc167 cells
- Knock-down reagent: long dsRNA against Drosophila genes
- Duration: about 5 days (4 days dsRNA, then 24 h after transfection)
- Challenge: transfection of constitutively active membrane-tethered Notch lacking the extracellular domain, read 24 h later
- Measurement: 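Light from a Notch-responsive E(spl)m3 luciferase reporter under active Notch, with control-promoter and no-Notch reporter wells to normalise; raw counts from paired wells a and b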
- Reading the numbers: induced reporter light, run 1, well a and induced reporter light, run 1, well b: higher = more light from the Notch target reporter with active Notch; control promoter light, run 1, well a and control promoter light, run 1, well b: higher = more light from the viral control promoter (cell number, transfection, viability); uninduced reporter light, run 1, well a: higher = more light from the Notch target reporter without active Notch
- Hit rule: 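Wells with low control signal or poorly matching duplicates excluded; duplicates averaged; per source plate, z beyond ±2 for induced/control log2 ratio or beyond ±1.8 for induced/uninduced marks a hit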
- Meaning of the calls: active = modifier hit (raised or lowered Notch signal); inactive = not a hit

CkIIalpha-i3 (CKII-alpha subunit interactor-3) [DRSC08651]: induced reporter light, run 1, well a = 1.36e5; induced reporter light, run 1, well b = 1.24e5; control promoter light, run 1, well a = 2.08e5; control promoter light, run 1, well b = 2.33e5; uninduced reporter light, run 1, well a = 9680; call = inactive
CG8516 [DRSC16437]: induced reporter light, run 1, well a = 70655; induced reporter light, run 1, well b = 90085; control promoter light, run 1, well a = 66390; control promoter light, run 1, well b = 66755; uninduced reporter light, run 1, well a = 5490; call = inactive
CG13102 [DRSC02202]: induced reporter light, run 1, well a = 1.13e5; induced reporter light, run 1, well b = 1.27e5; control promoter light, run 1, well a = 74135; control promoter light, run 1, well b = 1.11e5; uninduced reporter light, run 1, well a = 17280; call = inactive
CR40354 (pseudo) [DRSC20923]: induced reporter light, run 1, well a = 3.28e5; induced reporter light, run 1, well b = 3.04e5; control promoter light, run 1, well a = 5.22e5; control promoter light, run 1, well b = 3.99e5; uninduced reporter light, run 1, well a = 19085; call = inactive
CG42527 (retired record) + Hr4 [DRSC18495]: induced reporter light, run 1, well a = 1.23e5; induced reporter light, run 1, well b = 1.02e5; control promoter light, run 1, well a = 1.56e5; control promoter light, run 1, well b = 1.74e5; uninduced reporter light, run 1, well a = 7190; call = inactive
CG42527 (retired record) + Hr4 [DRSC22269]: call = inactive
CG42527 (retired record) + Hr4 [DRSC22677]: call = inactive
mthl10 (methuselah-like 10) [DRSC08504]: induced reporter light, run 1, well a = 1.32e5; induced reporter light, run 1, well b = 1.43e5; control promoter light, run 1, well a = 1.87e5; control promoter light, run 1, well b = 1.73e5; uninduced reporter light, run 1, well a = 9685; call = inactive
mthl10 (methuselah-like 10) [DRSC08505]: induced reporter light, run 1, well a = 1.34e5; induced reporter light, run 1, well b = 1.47e5; control promoter light, run 1, well a = 2.20e5; control promoter light, run 1, well b = 1.48e5; uninduced reporter light, run 1, well a = 9245; call = inactive
CG14658 [DRSC12244]: induced reporter light, run 1, well a = 1.25e5; induced reporter light, run 1, well b = 1.03e5; control promoter light, run 1, well a = 1.32e5; control promoter light, run 1, well b = 1.40e5; uninduced reporter light, run 1, well a = 10280; call = inactive
rept (reptin) [DRSC11388]: induced reporter light, run 1, well a = 68375; induced reporter light, run 1, well b = 71075; control promoter light, run 1, well a = 67765; control promoter light, run 1, well b = 95045; uninduced reporter light, run 1, well a = 4070; call = inactive
scpr-A + scpr-C + scpr-B [DRSC15715]: induced reporter light, run 1, well a = 69295; induced reporter light, run 1, well b = 60295; control promoter light, run 1, well a = 63960; control promoter light, run 1, well b = 46790; uninduced reporter light, run 1, well a = 3728; call = inactive
CG16815 [DRSC02521]: induced reporter light, run 1, well a = 1.13e5; induced reporter light, run 1, well b = 1.47e5; control promoter light, run 1, well a = 1.11e5; control promoter light, run 1, well b = 1.11e5; uninduced reporter light, run 1, well a = 11850; call = inactive
CG7133 [DRSC11798]: induced reporter light, run 1, well a = 1.26e5; induced reporter light, run 1, well b = 1.09e5; control promoter light, run 1, well a = 65745; control promoter light, run 1, well b = 87950; uninduced reporter light, run 1, well a = 8780; call = inactive
CG12107 [DRSC06102]: induced reporter light, run 1, well a = 2.63e5; induced reporter light, run 1, well b = 2.07e5; control promoter light, run 1, well a = 2.17e5; control promoter light, run 1, well b = 2.51e5; uninduced reporter light, run 1, well a = 16095; call = inactive
beta-Spec (beta Spectrin) [DRSC20311]: induced reporter light, run 1, well a = 65585; induced reporter light, run 1, well b = 73415; control promoter light, run 1, well a = 64120; control promoter light, run 1, well b = 44205; uninduced reporter light, run 1, well a = 8815; call = inactive
RpS23 (Ribosomal protein S23) [DRSC07169]: induced reporter light, run 1, well a = 68545; induced reporter light, run 1, well b = 66535; control promoter light, run 1, well a = 71225; control promoter light, run 1, well b = 69005; uninduced reporter light, run 1, well a = 5345; call = inactive
CG10321 [DRSC04061]: induced reporter light, run 1, well a = 1.78e5; induced reporter light, run 1, well b = 1.89e5; control promoter light, run 1, well a = 3.28e5; control promoter light, run 1, well b = 2.97e5; uninduced reporter light, run 1, well a = 13690; call = inactive
Cpr51A (Cuticular protein 51A) [DRSC05969]: induced reporter light, run 1, well a = 72445; induced reporter light, run 1, well b = 1.01e5; control promoter light, run 1, well a = 1.25e5; control promoter light, run 1, well b = 1.12e5; uninduced reporter light, run 1, well a = 8785; call = inactive
CG12003 [DRSC08214]: induced reporter light, run 1, well a = 1.17e5; induced reporter light, run 1, well b = 1.53e5; control promoter light, run 1, well a = 2.90e5; control promoter light, run 1, well b = 2.53e5; uninduced reporter light, run 1, well a = 8015; call = inactive
CG17742 (retired record) [DRSC10285]: induced reporter light, run 1, well a = 10550; induced reporter light, run 1, well b = 8510; control promoter light, run 1, well a = 13050; control promoter light, run 1, well b = 11760; uninduced reporter light, run 1, well a = 2792; call = inactive
CG7333 [DRSC16229]: induced reporter light, run 1, well a = 1.96e5; induced reporter light, run 1, well b = 1.92e5; control promoter light, run 1, well a = 1.64e5; control promoter light, run 1, well b = 1.59e5; uninduced reporter light, run 1, well a = 13900; call = inactive
CG6071 [DRSC10579]: induced reporter light, run 1, well a = 1.42e5; induced reporter light, run 1, well b = 1.20e5; control promoter light, run 1, well a = 1.49e5; control promoter light, run 1, well b = 1.28e5; uninduced reporter light, run 1, well a = 6882; call = inactive
eIF3l (eukaryotic translation initiation factor 3 subunit l) [DRSC10530]: induced reporter light, run 1, well a = 1.44e5; induced reporter light, run 1, well b = 1.40e5; control promoter light, run 1, well a = 1.32e5; control promoter light, run 1, well b = 1.09e5; uninduced reporter light, run 1, well a = 12020; call = active
